{
  "source": "paper PMC9945734",
  "about": "(BMC Medicine, 2023)",
  "tested_on": "PC-3-KQ cells",
  "experiment": "3D spheroid invasion assay and screening of FDA-approved drugs",
  "format": "cell-based, human",
  "conditions": "secondary screening of 87 hit compounds (Table S1), compared to vehicle control",
  "description": "The invasion assay was performed as previously described. […] The plates were then centrifuged at 320 g for 4 min to cluster cells in the bottom of wells and incubated for 3 days. On the fourth day, 40 μL medium was removed from each well, 40 μL of the matrigel-medium mixture was added to each well, and cells were cultured for another 3 days. […] At the end of the incubation, images were taken using a phase contrast microscope (Eclipse Ti2, Nikon, Tokyo, Japan) with 10× object lenses, and the total area of cells and the core sphere area of cells (Fig. 1a) were measured using the Image J software. The invading area was calculated using the following formula: invasion area = total area of cells – core sphere area.\nFor drug screening, drugs were added to the matrigel-medium mixture when replacing the culture medium on day 4. For the initial round of screening, a final concentration of 10 μM was used for all drugs. Multiple drug concentrations were used for the second round of screening, including 0, 0.001, 0.01, 0.1, 1, and 10 μM. Duplicate wells were repeated for each concentration.",
  "data": [
    {"smiles": "CN1CCC[C@@H]1CCO[C@](C)(c1ccccc1)c1ccc(Cl)cc1.O=C(O)/C=C/C(=O)O", "note": "[Clemastine (fumarate)]", "values": [
      {"measurement": "Invasion rates (%) of each drug’s multiple concentrations (μM)", "setting": "0.01 μM (first column so headed)", "result": 99.30, "unit": "%"},
      {"measurement": "Invasion rates (%) of each drug’s multiple concentrations (μM)", "setting": "0.01 μM (second column so headed)", "result": 99.73, "unit": "%"},
      {"measurement": "Invasion rates (%) of each drug’s multiple concentrations (μM)", "setting": "0.1 μM", "result": 98.29, "unit": "%"},
      {"measurement": "Invasion rates (%) of each drug’s multiple concentrations (μM)", "setting": "1 μM", "result": 97.09, "unit": "%"},
      {"measurement": "Invasion rates (%) of each drug’s multiple concentrations (μM)", "setting": "10 μM", "result": 41.07, "unit": "%"}
    ]},
    {"smiles": "COc1cc(OC)cc(N(CCNC(C)C)c2ccc3ncc(-c4cnn(C)c4)nc3c2)c1", "note": "[Erdafitinib]", "values": [
      {"measurement": "activity at 1 µM", "setting": "Homo sapiens, 72 h, 1 μM, read-out: Invasion rates (%) of each drug’s multiple concentrations", "result": 80.6, "unit": "%"},
      {"measurement": "activity at 10 µM", "setting": "Homo sapiens, 72 h, 10 μM, read-out: Invasion rates (%) of each drug’s multiple concentrations", "result": 50.3, "unit": "%"}
    ]}
  ]
}
